Patent publication US20110319405A1, “Treatment and prevention of diffuse parenchymal lung disease by selective active-site mTOR inhibitors” (The Board of Trustees of the Leland Stanford Junior …, priority 2010, published 2011)

Protein sequences, listed by entry. Tags and fused reporters are not part of them.
UniProt P05771, whole entry, species assumed: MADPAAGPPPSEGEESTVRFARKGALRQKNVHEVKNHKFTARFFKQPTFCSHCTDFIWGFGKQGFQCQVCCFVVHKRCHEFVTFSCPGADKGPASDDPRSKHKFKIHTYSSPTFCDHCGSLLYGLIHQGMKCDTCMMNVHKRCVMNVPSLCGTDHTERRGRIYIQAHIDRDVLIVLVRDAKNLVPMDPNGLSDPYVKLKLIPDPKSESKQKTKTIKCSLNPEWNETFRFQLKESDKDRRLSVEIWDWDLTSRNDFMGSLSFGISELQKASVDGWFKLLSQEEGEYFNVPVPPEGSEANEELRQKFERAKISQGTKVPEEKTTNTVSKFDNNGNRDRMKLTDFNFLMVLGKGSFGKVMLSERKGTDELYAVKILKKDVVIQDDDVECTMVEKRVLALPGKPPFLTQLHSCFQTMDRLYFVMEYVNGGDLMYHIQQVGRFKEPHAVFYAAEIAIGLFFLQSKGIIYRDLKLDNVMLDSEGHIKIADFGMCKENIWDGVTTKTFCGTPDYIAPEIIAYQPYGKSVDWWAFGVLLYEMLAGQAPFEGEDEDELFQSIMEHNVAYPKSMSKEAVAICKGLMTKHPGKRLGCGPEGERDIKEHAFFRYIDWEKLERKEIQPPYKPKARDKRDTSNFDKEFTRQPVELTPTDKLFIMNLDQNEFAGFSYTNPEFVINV

How the values were obtained:
[1] = molecular target: T1, PKC-beta (Homo sapiens, UniProt P05771); settings: concentration 100-fold higher than its mTOR IC50 value; cited from earlier work
[2] = test system: IPF fibroblasts; experiment: Migration of IPF fibroblasts; format: cell-based, human; settings: FIG. 5
[3] = molecular target: T1, PKC-beta; settings: purified protein; result in words; cited from earlier work
[4] = test system: 219 purified protein kinases; settings: concentration 100-fold higher than its mTOR IC50 value; cited from earlier work
[5] = test system: Akt (Ser473 and T308) activation; experiment: TGF-β-mediated activation of Akt in control lung fibroblasts (Western blot); format: cell-based, human
Description: (§1) Cell Culture and Reagents. Lung fibroblasts were isolated from patients undergoing surgical biopsy for the diagnosis of interstitial lung disease or lung transplant for IPF, and non-neoplastic tissue was obtained from patients undergoing surgical lung cancer resection, as described previously (Chang W. T. et al., J Biol Chem., 2001, 276, 2221-7). Fibroblasts were cultured in Dulbecco's modified Eagle's medium (DMEM) supplemented with 10% fetal bovine serum (FBS) at 5% CO2 at 37° C., and were used for studies for up to 5 passages after the initial preparation. For each experiment, cells were plated in culture vessels in DMEM complete medium and cultured until 70-80% in confluence, unless otherwise indicated.
Western Blot Analysis. Western blot analysis and band intensity quantitation were performed as described previously (Chang W. T. et al., J Biol Chem., 2001, 276, 2221-7). Briefly, the protein concentration was measured by Bradford assay (Bio-Rad) according to the manufacturer's instructions. An equal amount of protein was separated by SDS-PAGE and transferred to polyvinylidene difluoride membrane. […] The blot was visualized by enhanced chemiluminescence (GE Healthcare) and analyzed using a Kodak Image Station 4000R system (Carestream Health, Rochester, N.Y.). […]

[6] = test system: TGF-β-stimulated control lung fibroblasts; experiment: TGF-β-mediated induction of stromal proteins in control lung fibroblasts (Western blot); format: cell-based, human
Description: as §1
Western Blot Analysis. Western blot analysis and band intensity quantitation were performed as described previously (Chang W. T. et al., J Biol Chem., 2001, 276, 2221-7). Briefly, the protein concentration was measured by Bradford assay (Bio-Rad) according to the manufacturer's instructions. An equal amount of protein was separated by SDS-PAGE and transferred to polyvinylidene difluoride membrane. […] The blot was visualized by enhanced chemiluminescence (GE Healthcare) and analyzed using a Kodak Image Station 4000R system (Carestream Health, Rochester, N.Y.).
In further studies, we examined if inhibition of mTORC1 and/or mTORC2 would limit TGF-β-mediated induction of stromal genes. […]

[7] = molecular target: T2, PKC-alpha (Homo sapiens, UniProt P17252); settings: read-out: in vitro IC50 against PKC-alpha; purified protein; cited from earlier work
[8] = test system: JAK2; settings: cited from earlier work
[9] = molecular target: T2, PKC-alpha; settings: concentration 100-fold higher than its mTOR IC50 value; cited from earlier work
[10] = test system: JAK2; settings: concentration 100-fold higher than its mTOR IC50 value; cited from earlier work
[11] = test system: control fibroblasts; experiment: Migration of control fibroblasts; format: cell-based, human; settings: FIG. 5

CC(C)n1nc(-c2cc3cc(O)ccc3[nH]2)c2c(N)ncnc21 [PP242]
inhibition of PKC-beta [1]: more than 80%
migration of IPF fibroblasts [2]: significantly reduced
in vitro IC50 determination against PKC-beta [3]: relatively inactive
effect on 219 purified protein kinases [4]: most protein kinases were unaffected
blocking of TGF-β activation of Akt (Ser473) [5]: blocked
blocking of TGF-β activation of Akt (T308) [5]: blocked
inhibition of TGF-β induction of PAI-1 [6]: > 80%
IC50 [7]: 50 nM
in vitro IC50 determination against JAK2 [8]: relatively inactive
inhibition of PKC-alpha [9]: more than 80%
inhibition of JAK2 [10]: more than 80%
migration of TGF-β-treated fibroblasts ([11]; TGF-β-treated): significantly reduced
migration of unstimulated control fibroblasts ([11]; unstimulated): significantly reduced
